Laboratory results taken from patent US4816393A, “Nucleoside triphosphate-dependent 1-methylhydantoinase, a process for obtaining it and the use thereof” (Boehringer Mannheim GmbH, priority 1984, dated 1989).
At least one compound was matched to its structure with a doubt left.

Test system: 1-methylhydantoinase
Assay: Nucleotide specificity of 1-methylhydantoinase (via carbamoylsarcosinamidohydrolase + sarcosine oxidase)
Assay type: biochemical, Arthrobacter species DSM 2563
Conditions: nucleotide 4 mmol/liter
Protocol: Relative activity in % (ATP=100) determined via the reaction sequence catalyzed by carbamoylsarcosinamidohydrolase+sarcosine oxidase:
The activity determination was carried out as follows: […]
2. 1-Methylhydantoin solution: 10 mmol/liter
Wavelength 546 mn; T=25° C.; light path 1 cm.; final volume 2.03 ml.; extinction coefficient of the dye formed=13 cm^2 /μmol. […]
^++ For the investigation according to Points 2, 3b, 4, 5 and 6 given
4. Calculation: [formula] Remark: ΔA/min. must not to be more than 0.66; otherwise dilute sample. Lag phase about 5 minutes.

Structure (SMILES): NC(=O)OP(=O)(O)O [carb-phosphate, carbamyl phosphate]
- Relative activity in % (ATP=100): 0%
